Measured values as given in patent US20210285933A1, “HIGH THROUGHPUT DRUG SCREENING OF CANCER STEM CELLS” (UNIVERSITY OF WASHINGTON, priority 2018, published 2021).
At least one structure is not confirmed: it was looked up by name or label, or the drawing left a doubt.

Assays:
[1] = system: leukemia stem cells (LSCs) CD34+CD38low or negCD123+ from AML patient samples; experiment: High throughput functional drug screen (72-hour exposure, CellTiter Glo viability) on FACS sorted LSCs; type: cell-based, human
Experimental: (§1) Isolation of blasts and FACS isolation of LSCs: CD34+ blasts were enriched to >90% using immunomagnetic beads (QuadroMACS). Fluorescence activated cell sorting was performed in a biosafety cabinet enclosed FACS-Aria II (Becton-Dickinson; San Jose, Calif.) housed in the University of Washington Core Cell Analysis Facility where voltage was standardized and calibration was performed daily. Mononuclear cells were stained with allophycocyanin H7 (APC-H7) conjugated anti-human CD45, allophycocyanin (APC) conjugated anti-human CD34, phycoerythrin-Cy7 (PE-Cy7) conjugated anti-human CD38 and phycoerythrin (PE) conjugated anti-human CD123 (all from BD Biosciences Pharmingen, San Jose, Calif.). […]
After overnight incubation on matrix protein coated 384 well plates, drugs were added to each well using a CyBio Well Vario liquid handler (Amalytik Jena). The cell populations were analyzed for survival after a 72-hour exposure to 8 customized drug concentrations (within the range of 5 pM to 100 microM) of each drug spanning 4 logs. Post exposure viability was measured using CellTiter Glo luminescent reagent (Promega, Madison, Wis.) per manufacturer protocol, then the plates were analyzed with the Envision Multi-label plate reader (Perkin Elmer, Waltham, Mass.). […]
(§2) Area under the curve (AUC) was calculated for each dose response curve. […]

[2] = system: AML blasts (CD45dim, side scatter low) from patient samples; experiment: High throughput functional drug screen (72-hour exposure, CellTiter Glo viability) on AML blasts; type: cell-based, human; conditions: FIG. 9; expected plasma concentration in patients with typical dosing
Experimental: as §1
Functional Drug Screen: A CLIA-validated in vitro sensitivity assay was performed that included both FDA approved and investigational drugs. ‘Oncopane11’ comprised of 153 drugs was used for HTS of patient samples and an earlier generation panel of 160 drugs was used for HTS of the NOD/SCID IL2R γc−/− mouse engraftment sample. […] The cell populations were analyzed for survival after a 72-hour exposure to 8 customized drug concentrations (within the range of 5 pM to 100 microM) of each drug spanning 4 logs. […]
as §2

| SMILES | Effectiveness vs. LSCs (AUCstem mean < mitomycin C AUCblast mean, p<0.1) ([1]; aggregate viability data of patient samples, in vitro 72 h) | mean IC50 of blast samples compared to predicted plasma concentration [2] | mean IC50 of LSC samples compared to predicted plasma concentration ([1]; FIG. 9, expected plasma concentration in patients with typical dosing) |
| --- | --- | --- | --- |
| C/C=C1\NC(=O)[C@H]2CSSCC/C=C/[C@H](CC(=O)N[C@H](C(C)C)C(=O)N2)OC(=O)[C@H](C(C)C)NC1=O [Romidepsin] | LSC effective |  |  |
| Nc1nc(F)nc2c1ncn2[C@@H]1O[C@H](CO)[C@@H](O)[C@@H]1O [Fludarabine] |  | less than predicted plasma concentration | greater than the predicted plasma concentration |
